Test [1] relates to A549 (human lung carcinoma) cell line. Put plainly: In vitro cytotoxicity, MTT assay, A549. It is filed as cell-based. Conditions: 24 h incubation with complex, read-out: IC50 values against A549 cancer cell line. As for the experimental part:
(§1) The in vitro cytotoxicity tests were carried out for the gold(I) precursor, labeled as complex 0 and the three synthesized complexes labeled as complex 1, 2 and 3 and compared with cisplatin (standard classical anticancer drug) against three human cancer cell lines, HCT15, HeLa and A549 using MTT assay. The dose dependent cytotoxic effect was obtained by the stipulated increase in concentrations of cisplatin and gold complexes 0-3 against the fixed number of human cancer cells. The IC50 concentration of cisplatin and complexes 0-3 for different human cancer cell lines was obtained from a curve between compound concentration and percentage viability of cells (FIGS. 5-10, Table 6).
(§2) In phase contrast micrographs, a decreasing cell density and deformed cellular morphology could be observed with increasing concentration of complexes 0-3 (FIGS. 11-13). […] The IC50 concentrations of gold complexes were calculated from a separate curve between complex concentration and % viability of cells plotted in Microsoft Excel 2007 (graphs not shown) using MTT assay data and explained by logarithmic regression equations (equations not shown).
(§3) The metal precursor (complex 0) and the three synthesized compounds 1-3 were evaluated for their in vitro cytotoxic activity against HCT15 (human cancer), HeLa (human cervical cancer) and A549 (human lung carcinoma) cell lines. […]

Test [2] has as its system HeLa (human cervical cancer) cell line. The test is described as follows: In vitro cytotoxicity, MTT assay, HeLa. It is filed as cell-based. The following applies: 24 h incubation with complex, read-out: IC50 values against HeLa cancer cell line. As for the experimental part:
as §1, §2, §3

For the compound `N.N.[Cl][Pt][Cl]` [Cisplatin, cisplatin], the IC50 in test [1] was 41.6 µM; in test [2], 19.4 µM.

These data come from patent US9573967B2, “N-heterocyclic carbene gold complexes with anticancer properties and methods of use thereof” (KING FAHD UNIVERSITY OF PETROLEUM AND MINERALS, priority 2015, dated 2017).
